The target in the experiment is T1, BARMR1 (UniProt A1XBS5).
T1 sequence: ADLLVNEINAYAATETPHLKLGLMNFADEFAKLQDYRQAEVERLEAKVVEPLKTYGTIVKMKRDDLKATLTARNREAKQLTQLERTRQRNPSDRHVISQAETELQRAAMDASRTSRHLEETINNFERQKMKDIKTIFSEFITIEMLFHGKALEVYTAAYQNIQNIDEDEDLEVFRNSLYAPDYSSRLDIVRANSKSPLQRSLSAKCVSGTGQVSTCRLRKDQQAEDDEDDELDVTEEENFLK
Kind of experiment: co-IP; co-immunoprecipitation; cells, bait and antibodies not told in the text shown (Supplementary Fig. S6a).

By UniProt entry, the sequences of proteins in these tests, tags left out.
UniProt P09382: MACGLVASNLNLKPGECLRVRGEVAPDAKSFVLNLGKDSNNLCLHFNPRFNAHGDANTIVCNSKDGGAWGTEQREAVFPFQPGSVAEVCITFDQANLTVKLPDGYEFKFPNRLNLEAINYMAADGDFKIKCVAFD

No constants are given. Whether binding was seen depends on the method and setting. Binding seen in cells or lysates may run through a third protein. Some binding calls cover weakened binding; strength is not graded here.

With Galectin-1 (from UniProt P09382 1-135), the binding entry is “binds”.
